Source: the supplement of paper PMC10060354, “Discovery of a small molecule ligand of FRS2 that inhibits invasion and tumor growth” (Cellular Oncology, 2022)
Single values are uncertain, as repeats are few or missing.

By UniProt entry, the sequences of proteins in these tests, tags left out. Where a name states a change or a piece, a line headed by the entry shows the natural chain unless it says otherwise.
UniProt P08195: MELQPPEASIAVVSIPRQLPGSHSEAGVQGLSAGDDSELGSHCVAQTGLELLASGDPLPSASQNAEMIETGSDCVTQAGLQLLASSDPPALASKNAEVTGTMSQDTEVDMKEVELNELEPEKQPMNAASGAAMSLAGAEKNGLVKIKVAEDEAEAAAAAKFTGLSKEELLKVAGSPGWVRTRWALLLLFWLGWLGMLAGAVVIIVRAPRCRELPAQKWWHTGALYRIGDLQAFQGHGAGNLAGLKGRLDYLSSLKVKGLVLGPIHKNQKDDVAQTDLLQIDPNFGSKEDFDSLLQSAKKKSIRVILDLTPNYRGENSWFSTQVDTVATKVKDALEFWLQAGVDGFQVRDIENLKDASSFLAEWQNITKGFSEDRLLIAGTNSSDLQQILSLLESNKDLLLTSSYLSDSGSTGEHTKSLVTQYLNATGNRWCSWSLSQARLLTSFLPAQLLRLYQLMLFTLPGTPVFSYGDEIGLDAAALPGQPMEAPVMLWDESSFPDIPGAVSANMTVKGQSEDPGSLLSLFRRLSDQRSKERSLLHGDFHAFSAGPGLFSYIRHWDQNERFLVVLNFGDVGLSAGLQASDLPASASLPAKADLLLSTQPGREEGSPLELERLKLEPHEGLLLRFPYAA
UniProt Q96Q11: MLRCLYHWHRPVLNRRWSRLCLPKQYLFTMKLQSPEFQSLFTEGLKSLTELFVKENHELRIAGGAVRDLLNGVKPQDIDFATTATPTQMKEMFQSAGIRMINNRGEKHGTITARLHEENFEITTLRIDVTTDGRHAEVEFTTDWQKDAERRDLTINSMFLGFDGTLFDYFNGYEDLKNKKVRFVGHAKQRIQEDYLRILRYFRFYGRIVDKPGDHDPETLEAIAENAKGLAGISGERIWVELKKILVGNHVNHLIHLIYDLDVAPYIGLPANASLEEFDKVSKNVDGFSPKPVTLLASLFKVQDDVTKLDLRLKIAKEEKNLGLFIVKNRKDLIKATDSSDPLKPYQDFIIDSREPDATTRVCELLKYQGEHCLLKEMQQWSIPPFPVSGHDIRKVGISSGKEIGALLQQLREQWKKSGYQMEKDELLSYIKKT
UniProt P19532: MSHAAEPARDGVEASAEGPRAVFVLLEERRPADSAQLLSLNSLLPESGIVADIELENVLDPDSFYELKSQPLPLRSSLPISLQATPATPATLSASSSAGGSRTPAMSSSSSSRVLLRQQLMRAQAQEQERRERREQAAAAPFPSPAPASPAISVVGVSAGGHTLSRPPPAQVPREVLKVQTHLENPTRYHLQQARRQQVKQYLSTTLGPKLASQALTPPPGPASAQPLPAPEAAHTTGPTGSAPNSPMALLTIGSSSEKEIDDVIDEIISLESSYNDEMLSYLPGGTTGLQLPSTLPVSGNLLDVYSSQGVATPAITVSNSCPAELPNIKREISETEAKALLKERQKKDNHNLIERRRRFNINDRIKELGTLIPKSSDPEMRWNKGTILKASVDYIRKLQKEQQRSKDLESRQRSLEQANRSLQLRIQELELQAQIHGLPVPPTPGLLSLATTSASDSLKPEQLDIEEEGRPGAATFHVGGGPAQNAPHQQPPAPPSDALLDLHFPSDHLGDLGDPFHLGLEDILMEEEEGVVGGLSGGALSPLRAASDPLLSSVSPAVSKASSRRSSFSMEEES
UniProt O15027: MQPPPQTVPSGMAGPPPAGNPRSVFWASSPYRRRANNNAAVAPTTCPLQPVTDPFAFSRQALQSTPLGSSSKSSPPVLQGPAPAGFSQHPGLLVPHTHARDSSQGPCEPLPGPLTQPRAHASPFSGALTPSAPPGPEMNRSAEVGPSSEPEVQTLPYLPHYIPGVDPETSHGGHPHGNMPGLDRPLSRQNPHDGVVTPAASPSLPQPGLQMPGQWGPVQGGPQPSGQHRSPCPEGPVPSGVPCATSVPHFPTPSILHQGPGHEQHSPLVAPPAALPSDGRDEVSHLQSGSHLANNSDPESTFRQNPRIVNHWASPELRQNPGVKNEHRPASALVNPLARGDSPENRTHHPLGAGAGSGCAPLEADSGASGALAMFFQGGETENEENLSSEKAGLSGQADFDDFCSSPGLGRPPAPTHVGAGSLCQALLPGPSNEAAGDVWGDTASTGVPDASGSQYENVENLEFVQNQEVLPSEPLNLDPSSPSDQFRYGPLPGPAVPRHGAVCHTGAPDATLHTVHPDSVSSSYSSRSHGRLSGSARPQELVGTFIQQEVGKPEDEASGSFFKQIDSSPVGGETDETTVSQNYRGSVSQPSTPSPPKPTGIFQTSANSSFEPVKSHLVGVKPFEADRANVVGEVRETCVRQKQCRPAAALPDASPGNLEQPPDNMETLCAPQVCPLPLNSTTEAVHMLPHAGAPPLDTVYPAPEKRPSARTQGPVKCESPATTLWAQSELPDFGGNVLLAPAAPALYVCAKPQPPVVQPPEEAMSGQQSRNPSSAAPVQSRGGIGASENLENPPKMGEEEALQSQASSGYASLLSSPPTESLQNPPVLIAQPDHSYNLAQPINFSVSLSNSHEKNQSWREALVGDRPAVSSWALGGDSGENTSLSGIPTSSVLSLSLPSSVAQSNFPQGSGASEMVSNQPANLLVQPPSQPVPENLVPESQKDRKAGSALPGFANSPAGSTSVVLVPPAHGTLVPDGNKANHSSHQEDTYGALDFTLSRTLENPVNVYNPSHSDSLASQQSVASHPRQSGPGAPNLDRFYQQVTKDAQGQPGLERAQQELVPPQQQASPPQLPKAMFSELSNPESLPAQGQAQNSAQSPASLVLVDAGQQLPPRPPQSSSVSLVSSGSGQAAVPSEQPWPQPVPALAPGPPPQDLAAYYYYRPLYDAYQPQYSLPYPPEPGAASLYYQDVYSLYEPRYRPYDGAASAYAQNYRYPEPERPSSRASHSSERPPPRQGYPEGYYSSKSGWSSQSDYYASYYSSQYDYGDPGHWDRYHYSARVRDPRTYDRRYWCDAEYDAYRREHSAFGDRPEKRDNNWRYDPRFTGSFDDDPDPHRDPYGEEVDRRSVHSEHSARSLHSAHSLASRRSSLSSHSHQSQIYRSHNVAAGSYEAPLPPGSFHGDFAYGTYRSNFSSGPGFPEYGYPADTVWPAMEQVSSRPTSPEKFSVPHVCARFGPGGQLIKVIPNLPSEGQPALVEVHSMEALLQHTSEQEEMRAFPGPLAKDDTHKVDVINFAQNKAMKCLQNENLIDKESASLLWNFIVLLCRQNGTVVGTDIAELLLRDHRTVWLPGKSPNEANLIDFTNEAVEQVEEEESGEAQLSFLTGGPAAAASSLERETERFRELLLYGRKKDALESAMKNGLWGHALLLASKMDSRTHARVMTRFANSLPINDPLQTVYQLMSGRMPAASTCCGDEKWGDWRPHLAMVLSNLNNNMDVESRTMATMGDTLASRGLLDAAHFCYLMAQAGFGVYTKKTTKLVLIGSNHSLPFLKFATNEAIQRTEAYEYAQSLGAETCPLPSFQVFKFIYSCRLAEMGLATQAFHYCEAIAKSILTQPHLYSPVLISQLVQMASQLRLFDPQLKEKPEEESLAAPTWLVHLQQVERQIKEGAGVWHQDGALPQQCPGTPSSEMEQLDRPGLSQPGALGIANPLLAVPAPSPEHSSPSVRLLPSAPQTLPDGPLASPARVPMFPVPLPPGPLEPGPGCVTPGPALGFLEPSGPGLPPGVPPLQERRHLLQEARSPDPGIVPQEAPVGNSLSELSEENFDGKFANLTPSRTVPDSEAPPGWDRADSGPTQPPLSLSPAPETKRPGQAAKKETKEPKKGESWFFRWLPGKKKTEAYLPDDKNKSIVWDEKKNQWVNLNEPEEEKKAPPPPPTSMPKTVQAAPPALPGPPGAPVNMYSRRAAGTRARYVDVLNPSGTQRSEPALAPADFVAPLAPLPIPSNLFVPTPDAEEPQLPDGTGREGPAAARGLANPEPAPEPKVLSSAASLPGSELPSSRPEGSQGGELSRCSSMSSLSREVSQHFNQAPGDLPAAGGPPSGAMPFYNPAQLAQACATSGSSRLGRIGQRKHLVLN
UniProt Q04941: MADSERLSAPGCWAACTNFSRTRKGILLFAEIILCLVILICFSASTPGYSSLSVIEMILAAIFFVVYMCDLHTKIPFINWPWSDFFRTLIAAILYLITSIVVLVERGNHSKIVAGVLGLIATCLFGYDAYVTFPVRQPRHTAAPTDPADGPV
UniProt Q9H098: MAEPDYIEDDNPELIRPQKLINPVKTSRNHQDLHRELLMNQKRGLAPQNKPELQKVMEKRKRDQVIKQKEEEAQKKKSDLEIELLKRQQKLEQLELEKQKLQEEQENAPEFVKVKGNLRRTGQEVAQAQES
UniProt Q14241: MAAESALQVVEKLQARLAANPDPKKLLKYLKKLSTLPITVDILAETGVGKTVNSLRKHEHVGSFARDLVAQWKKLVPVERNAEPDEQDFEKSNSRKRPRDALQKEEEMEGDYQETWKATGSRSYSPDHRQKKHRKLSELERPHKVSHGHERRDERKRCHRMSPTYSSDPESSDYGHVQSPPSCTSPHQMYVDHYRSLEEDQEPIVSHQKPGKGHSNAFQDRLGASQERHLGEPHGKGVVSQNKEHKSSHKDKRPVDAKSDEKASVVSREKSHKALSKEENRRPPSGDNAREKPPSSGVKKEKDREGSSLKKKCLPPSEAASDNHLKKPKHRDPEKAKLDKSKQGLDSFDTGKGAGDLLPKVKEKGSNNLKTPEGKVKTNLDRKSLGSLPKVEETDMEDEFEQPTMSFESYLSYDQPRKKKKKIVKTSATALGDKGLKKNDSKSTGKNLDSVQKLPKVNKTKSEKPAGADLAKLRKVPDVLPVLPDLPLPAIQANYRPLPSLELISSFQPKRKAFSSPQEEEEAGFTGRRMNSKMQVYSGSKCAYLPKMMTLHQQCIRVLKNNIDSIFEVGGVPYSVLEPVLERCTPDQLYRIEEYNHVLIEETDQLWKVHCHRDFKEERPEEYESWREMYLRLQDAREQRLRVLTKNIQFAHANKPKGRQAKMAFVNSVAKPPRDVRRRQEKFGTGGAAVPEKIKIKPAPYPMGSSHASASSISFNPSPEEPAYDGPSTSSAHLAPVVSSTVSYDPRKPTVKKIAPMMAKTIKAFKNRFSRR
UniProt O75438, whole entry: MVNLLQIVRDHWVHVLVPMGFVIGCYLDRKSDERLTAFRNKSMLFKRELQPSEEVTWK
UniProt P17568, whole entry: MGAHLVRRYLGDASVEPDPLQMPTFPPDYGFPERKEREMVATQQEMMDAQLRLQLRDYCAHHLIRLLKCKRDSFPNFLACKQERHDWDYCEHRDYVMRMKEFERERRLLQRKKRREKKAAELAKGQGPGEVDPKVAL
UniProt Q6P179: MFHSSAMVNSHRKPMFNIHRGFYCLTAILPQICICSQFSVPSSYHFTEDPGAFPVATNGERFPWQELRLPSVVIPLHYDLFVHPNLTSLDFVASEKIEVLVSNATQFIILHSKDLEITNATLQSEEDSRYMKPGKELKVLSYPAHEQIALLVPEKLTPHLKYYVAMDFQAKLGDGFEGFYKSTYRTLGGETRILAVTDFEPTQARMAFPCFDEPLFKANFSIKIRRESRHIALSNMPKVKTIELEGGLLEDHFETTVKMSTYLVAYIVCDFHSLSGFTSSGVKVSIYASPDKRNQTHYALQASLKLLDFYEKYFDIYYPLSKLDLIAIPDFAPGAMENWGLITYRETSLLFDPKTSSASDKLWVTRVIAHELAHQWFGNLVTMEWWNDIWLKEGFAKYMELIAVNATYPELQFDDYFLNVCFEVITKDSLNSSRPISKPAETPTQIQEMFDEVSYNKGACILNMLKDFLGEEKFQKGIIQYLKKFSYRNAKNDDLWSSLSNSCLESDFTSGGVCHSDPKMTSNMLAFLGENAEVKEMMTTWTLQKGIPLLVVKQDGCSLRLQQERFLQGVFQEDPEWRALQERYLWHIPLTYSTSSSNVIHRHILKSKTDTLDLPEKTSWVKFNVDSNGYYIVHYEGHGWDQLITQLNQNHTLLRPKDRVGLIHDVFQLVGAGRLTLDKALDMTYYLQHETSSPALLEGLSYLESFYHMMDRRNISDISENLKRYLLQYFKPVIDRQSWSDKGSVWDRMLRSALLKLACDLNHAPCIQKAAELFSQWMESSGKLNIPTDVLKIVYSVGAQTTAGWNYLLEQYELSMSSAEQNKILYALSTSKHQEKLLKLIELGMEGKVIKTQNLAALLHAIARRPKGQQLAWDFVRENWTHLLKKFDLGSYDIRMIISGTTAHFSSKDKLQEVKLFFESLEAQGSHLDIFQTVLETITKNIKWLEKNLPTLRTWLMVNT
UniProt Q14376: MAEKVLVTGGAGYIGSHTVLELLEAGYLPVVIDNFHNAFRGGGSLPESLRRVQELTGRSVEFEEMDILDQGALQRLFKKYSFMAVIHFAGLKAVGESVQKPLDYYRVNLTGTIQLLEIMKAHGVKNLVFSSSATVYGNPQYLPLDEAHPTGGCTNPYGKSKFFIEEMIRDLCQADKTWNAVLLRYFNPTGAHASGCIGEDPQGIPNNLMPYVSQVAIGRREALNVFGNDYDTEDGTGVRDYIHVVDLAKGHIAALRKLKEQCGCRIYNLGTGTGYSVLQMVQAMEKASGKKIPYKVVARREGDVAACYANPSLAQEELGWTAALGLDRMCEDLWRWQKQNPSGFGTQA

Compound: [O-][N+](C(C1=C(C(O)=C2)NC(C(C=C3)=CC=C3Cl)C4C1C=CC4)=C2Cl)=O
Experiment: melting temperature shift (compound 7 minus DMSO); higher = compound stabilises the protein
Details: 10 µM
Procedure: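 Thermal proteome profiling (TMT mass spectrometry) in intact DAOY medulloblastoma cells or DAOY lysates treated with 10 µM compound 7 or DMSO, heated at 10 temperatures from 40.5 to 73.8 °C for 3 min. Melting curves were fitted with the Bioconductor TPP package, and the melting point difference between compound and vehicle is reported per protein (single curve per condition).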

[1] = system: DAOY cell lysate, treatment time: 20 min, 4 °C
[2] = system: intact DAOY cells, treatment time: 90 min, 37 °C

Target	melting temperature shift [1]	melting temperature shift [2]
YIPF4 (UniProt Q9BSR8)	0.288 °C	-0.27 °C
CSDE1 (UniProt O75534)	-0.46 °C	-0.212 °C
NUTF2 (UniProt P61970)	1.97 °C	–
UniProt Q6SZW1	-0.0159 °C	–
AIMP2 (UniProt Q13155)	0.511 °C	-0.409 °C
UniProt Q15208	-0.762 °C	-0.46 °C
UniProt P04439	2.32 °C	–
UniProt Q5SY16	1.28 °C	0.786 °C
CHD4 (UniProt Q14839)	0.114 °C	-0.579 °C
MRPS10 (UniProt P82664)	-0.151 °C	-1.19 °C
RASAL2 (UniProt Q9UJF2)	2.65 °C	-2.44 °C
SMC6 (UniProt Q96SB8)	0.264 °C	0.1 °C
PANX1 (UniProt Q96RD7)	3.3 °C	–
METTL14 (UniProt Q9HCE5)	0.435 °C	0.419 °C
TFDP1 (UniProt Q14186)	–	-3.69 °C
UniProt P05412	–	-0.194 °C
SLC3A2 (UniProt P08195)	1.94 °C	-0.0515 °C
SCAF11 (UniProt Q99590)	0.528 °C	0.613 °C
OS9 (UniProt Q13438)	0.452 °C	0.169 °C
SLC25A22 (UniProt Q9H936)	2.25 °C	-2.04 °C
CDAN1 (UniProt Q8IWY9)	-0.306 °C	–
CCDC47 (UniProt Q96A33)	1.29 °C	-0.785 °C
CCDC85C (UniProt A6NKD9)	-2.94 °C	1.08 °C

Target	melting temperature shift [1]	melting temperature shift [2]
UniProt P16220	-0.319 °C	–
ESD (UniProt P10768)	-0.489 °C	-0.466 °C
H1F0 (UniProt P07305)	–	-0.757 °C
TRNT1 (UniProt Q96Q11)	0.552 °C	-1.31 °C
UniProt Q16181	-0.0892 °C	0.101 °C
GAMT (UniProt Q14353)	-0.548 °C	1.19 °C
SLC35B2 (UniProt Q8TB61)	-0.467 °C	-0.526 °C
RAB6A (UniProt P20340)	1.85 °C	0.0618 °C
UniProt P19532	-0.121 °C	-2 °C
CDK5RAP3 (UniProt Q96JB5)	0.579 °C	-0.81 °C
PRPF38A (UniProt Q8NAV1)	0.253 °C	0.24 °C
SKIV2L (UniProt Q15477)	-0.0582 °C	–
ITSN2 (UniProt Q9NZM3)	-1.19 °C	–
BCL7B (UniProt Q9BQE9)	1.53 °C	–
EPN2 (UniProt O95208)	-0.392 °C	-1.83 °C
CDC16 (UniProt Q13042)	-0.874 °C	-0.259 °C
UniProt Q9H0H0	-1.08 °C	–
CHPF (UniProt Q8IZ52)	-2.25 °C	0.101 °C
NDUFAF4 (UniProt Q9P032)	1.33 °C	0.144 °C
UniProt Q9NUD5	1.04 °C	–
CLCN3 (UniProt P51790)	-4.48 °C	–
SNX3 (UniProt O60493)	-1.16 °C	-1.14 °C
PLBD2 (UniProt Q8NHP8)	0.0395 °C	-1.96 °C

Target	melting temperature shift [1]	melting temperature shift [2]
NEK3 (UniProt P51956)	2.15 °C	-1.09 °C
ZPR1 (UniProt O75312)	-0.769 °C	-0.146 °C
NIT2 (UniProt Q9NQR4)	-0.345 °C	0.86 °C
SEC16A (UniProt O15027)	0.0409 °C	0.876 °C
NCKAP1 (UniProt Q9Y2A7)	-0.603 °C	-0.0967 °C
DNA2 (UniProt P51530)	0.0919 °C	–
RRS1 (UniProt Q15050)	0.565 °C	0.553 °C
WWP2 (UniProt O00308)	3.66 °C	–
UniProt Q9UL01	1.42 °C	–
CLINT1 (UniProt Q14677)	-0.685 °C	-0.424 °C
UniProt Q04941	-4.01 °C	–
FAM107B (UniProt Q9H098)	-2.59 °C	–
AVL9 (UniProt Q8NBF6)	-2.04 °C	-0.431 °C
SAR1B (UniProt Q9Y6B6)	-0.277 °C	-0.991 °C
UniProt O00287	–	-0.862 °C
L1CAM (UniProt P32004)	3.34 °C	–
ARHGEF2 (UniProt Q92974)	-0.488 °C	-0.513 °C
AKAP8 (UniProt O43823)	0.208 °C	-0.433 °C
TCEB3 (UniProt Q14241)	-1.85 °C	-0.737 °C
CGGBP1 (UniProt Q9UFW8)	0.29 °C	-2.88 °C
UniProt O75438	1.48 °C	2.55 °C
MAP4K3 (UniProt Q8IVH8)	-1.27 °C	–
SLC25A13 (UniProt Q9UJS0)	1.39 °C	-0.726 °C

Retrieved one by one from the entries so far (five):
Target	melting temperature shift [1]	melting temperature shift [2]
UniProt P05412	–	-0.194 °C
UniProt Q9H0H0	-1.08 °C	–
CDAN1 (UniProt Q8IWY9)	-0.306 °C	–
UniProt O00287	–	-0.862 °C
RAB6A (UniProt P20340)	1.85 °C	0.0618 °C

(further entries)

Target	melting temperature shift [1]	melting temperature shift [2]
IFNGR1 (UniProt P15260)	–	0.565 °C
RHOC (UniProt P08134)	-0.837 °C	-0.75 °C
NDUFB7 (UniProt P17568)	2.72 °C	-0.743 °C
HDGFRP2 (UniProt Q7Z4V5)	-3.27 °C	–
UniProt Q8WUY9	-0.428 °C	–
NOP58 (UniProt Q9Y2X3)	0.913 °C	1.25 °C
MORF4L1 (UniProt Q9UBU8)	-0.263 °C	-0.156 °C
KCTD9 (UniProt Q7L273)	-0.706 °C	–
WDR45B (UniProt Q5MNZ6)	-0.58 °C	2.24 °C
INPP1 (UniProt P49441)	0.432 °C	-2.67 °C
THG1L (UniProt Q9NWX6)	-1.35 °C	-0.952 °C
ERGIC3 (UniProt Q9Y282)	2.19 °C	-1.21 °C
ASF1B (UniProt Q9NVP2)	-0.191 °C	1.71 °C
UniProt P41743	0.363 °C	0.0866 °C
UniProt Q6P179	0.767 °C	-0.0719 °C
UniProt P11215	–	-1.48 °C
EIF4E2 (UniProt O60573)	0.0398 °C	-0.53 °C
CETN3 (UniProt O15182)	-0.461 °C	1.21 °C
NDUFAF1 (UniProt Q9Y375)	1.68 °C	3.76 °C
MECR (UniProt Q9BV79)	–	1.98 °C
UniProt Q9Y2I8	0.241 °C	–
PTGR2 (UniProt Q8N8N7)	-1.46 °C	–
DIABLO (UniProt Q9NR28)	0.188 °C	-1.03 °C

Target	melting temperature shift [1]	melting temperature shift [2]
MKI67 (UniProt P46013)	0.858 °C	1.16 °C
GALE (UniProt Q14376)	0.396 °C	0.842 °C
C12ORF29 (UniProt Q8N999)	-0.512 °C	-0.0969 °C
LARP4B (UniProt Q92615)	-0.155 °C	0.884 °C
EXOSC10 (UniProt Q01780)	-0.253 °C	0.202 °C
ASB9 (UniProt Q96DX5)	0.612 °C	–
UniProt Q86X51	-0.338 °C	0.356 °C
VPS26A (UniProt O75436)	-0.711 °C	0.0509 °C
NUSAP1 (UniProt Q9BXS6)	0.26 °C	0.672 °C
CCDC115 (UniProt Q96NT0)	-0.126 °C	-0.746 °C
UniProt O15213	1.02 °C	–
GGA2 (UniProt Q9UJY4)	-0.529 °C	–
UniProt Q7Z3E5	-1.31 °C	-1.21 °C
GALNT10 (UniProt Q86SR1)	3.12 °C	–
UniProt Q96L91	-0.149 °C	0.00772 °C
UniProt P08590	–	-0.0458 °C
GCSH (UniProt P23434)	2.01 °C	–
BRD3 (UniProt Q15059)	-0.665 °C	-0.513 °C
CAPZA1 (UniProt P52907)	-1.07 °C	0.604 °C
CTPS1 (UniProt P17812)	-0.492 °C	-0.2 °C
RPL17 (UniProt P18621)	0.458 °C	-0.673 °C
